# PubChem BioAssay AID504764 | Drosophila RNAi Screening Center – 2011
# Test: 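Knock-downs that raise or lower a Notch target reporter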 (primary screen)
# Cells: Drosophila Kc167 cells
# Reagent: long dsRNA against Drosophila genes
# Timing: about 5 days (4 days dsRNA, then 24 h after transfection)
# Treatment: transfection of constitutively active membrane-tethered Notch lacking the extracellular domain, read 24 h later
# Detection: 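Light from a Notch-responsive E(spl)m3 luciferase reporter under active Notch, with control-promoter and no-Notch reporter wells to normalise; raw counts from paired wells a and b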
# Direction: induced reporter light, run 1, well a and induced reporter light, run 1, well b: higher = more light from the Notch target reporter with active Notch; control promoter light, run 1, well a and control promoter light, run 1, well b: higher = more light from the viral control promoter (cell number, transfection, viability); uninduced reporter light, run 1, well a: higher = more light from the Notch target reporter without active Notch
# Rule for the call: 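Hit if the duplicate-averaged log2 ratio of induced to control-promoter light gives a plate-wise z beyond ±2, or induced to uninduced beyond ±1.8; weak-control or discordant-duplicate wells dropped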
# Meaning of the calls: active = modifier hit (raised or lowered Notch signal); inactive = not a hit
# In all, the deposit lists about 22,000 reagents; below is a random part of those that have a named target and a result. In the full data, 403 (1.9%) got an active call. 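Unnormalised raw counts per well; ratio z-scores behind the hit calls and whether each hit raises or lowers signal are not deposited.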 Entries without a mark were called inactive. Names joined by + are all predicted targets of the reagent. Reagent sequences are not shown. Not given: the amount of reagent.
target,amplicon,"induced reporter light, run 1, well a","induced reporter light, run 1, well b","control promoter light, run 1, well a","control promoter light, run 1, well b","uninduced reporter light, run 1, well a"
CG13544,DRSC04186,2.25e5 (active),1.95e5,1.57e5,1.27e5,13160
CG14763,DRSC06497,2.22e5,1.93e5,2.76e5,2.29e5,19490
CIAPIN1,DRSC03559,1.92e5,1.83e5,1.82e5,2.22e5,17665
ste24a,DRSC07314,1.19e5,1.26e5,2.39e5,2.35e5,9720
Uqcc1 + CG9948,DRSC09690,2.16e5,2.13e5,2.78e5,3.02e5,12920
CG32086,DRSC10586,1.33e5,1.29e5,2.39e5,2.23e5,10432
CG9231,DRSC11054,1.18e5,1.28e5,85830,1.07e5,9885
CG7798,DRSC07047,1.27e5,1.18e5,1.12e5,1.00e5,9342
CG43328,DRSC05640,1.17e5,1.07e5,1.02e5,1.03e5,8670
Cat,DRSC11110,1.98e5,2.45e5,2.80e5,3.62e5,18975
hoe1,DRSC00265,2.21e5,1.68e5,2.03e5,2.10e5,20455
hoe1,DRSC00333,2.15e5,1.90e5,1.73e5,1.99e5,9510
hoe1,DRSC00353,1.25e5,1.11e5,1.51e5,1.19e5,6545
NC2alpha,DRSC04059,1.75e5,1.69e5,1.59e5,1.61e5,10530
BomBc3,DRSC15873,2.09e5,1.95e5,2.07e5,1.96e5,14335
CG5335,DRSC06931,28950,33440,49385,55025,3120
beta4GalT7,DRSC14385,1.51e5,1.50e5,2.49e5,2.25e5,13680
CG12310,DRSC09878,1.82e5,1.95e5,2.38e5,2.69e5,8205
CG17598,DRSC20636,1.19e5,85050,68785,47890,10095
CG9970,DRSC08644,1.14e5,1.16e5,2.01e5,1.98e5,8938
Shab,DRSC08013,1.58e5,1.72e5,1.73e5,1.32e5,14438
Shab,DRSC08643,1.24e5,1.06e5,2.14e5,1.94e5,10325
Shab,DRSC08699,94465,88840,1.74e5,1.58e5,7680
Mlc2,DRSC16741,1.61e5,1.97e5,1.79e5,1.67e5,12245
Grx5,DRSC19593,86355,82775,1.41e5,1.25e5,13970
DhpD,DRSC12288,1.37e5,1.01e5,80880,79300,8135
CG3556,DRSC18309,1.83e5,1.85e5,2.37e5,2.36e5,13738
CG15468,DRSC18051,75875 (active),95900,1.06e5,1.21e5,6760

Part of the list above, set out differently:
target	amplicon	induced reporter light, run 1, well a	induced reporter light, run 1, well b	control promoter light, run 1, well a	control promoter light, run 1, well b	uninduced reporter light, run 1, well a
hoe1	DRSC00333	2.15e5	1.90e5	1.73e5	1.99e5	9510
hoe1	DRSC00353	1.25e5	1.11e5	1.51e5	1.19e5	6545
NC2alpha	DRSC04059	1.75e5	1.69e5	1.59e5	1.61e5	10530
BomBc3	DRSC15873	2.09e5	1.95e5	2.07e5	1.96e5	14335
CG5335	DRSC06931	28950	33440	49385	55025	3120
beta4GalT7	DRSC14385	1.51e5	1.50e5	2.49e5	2.25e5	13680
CG12310	DRSC09878	1.82e5	1.95e5	2.38e5	2.69e5	8205
CG17598	DRSC20636	1.19e5	85050	68785	47890	10095
CG9970	DRSC08644	1.14e5	1.16e5	2.01e5	1.98e5	8938
Shab	DRSC08013	1.58e5	1.72e5	1.73e5	1.32e5	14438

Next entries follow:
target,amplicon,"induced reporter light, run 1, well a","induced reporter light, run 1, well b","control promoter light, run 1, well a","control promoter light, run 1, well b","uninduced reporter light, run 1, well a"
snsl,DRSC00543,1.82e5,1.26e5,1.97e5,1.79e5,8965
CG4553,DRSC15595,1.99e5,1.19e5,1.97e5,1.85e5,13785
Br140,DRSC06755,1.30e5,1.17e5,1.02e5,1.27e5,10280
GNBP3,DRSC11170,1.77e5,2.03e5,2.46e5,1.66e5,12545
Surf1,DRSC11295,1.68e5,1.42e5,1.70e5,1.39e5,7870
Surf1,DRSC11394,1.30e5,1.01e5,87920,31730,10000
CG4477,DRSC10425,3.23e5,2.82e5,4.43e5,3.34e5,14030
CG12025,DRSC08230,95070,1.65e5,2.36e5,1.61e5,7285
Fas3,DRSC01638,1.00e5,81580,1.02e5,96185,8505
Fas3,DRSC03326,1.34e5,1.45e5,1.56e5,1.75e5,12738
CG33506,DRSC05981,1.94e5,1.93e5,2.27e5,1.91e5,17360
Grip75,DRSC03337,1.40e5,1.53e5,72405,83095,17300
CG34457,DRSC06924,1.01e5,87615,94230,1.28e5,10325
l(1)10Bb,DRSC20346,88580,90565,89265,81500,6650
Kdsr,DRSC14245,2.30e5,1.92e5,3.12e5,3.03e5,13445
Pepck1,DRSC07505,28825,28470,25955,37495,2765
CG8568,DRSC20113,1.14e5,1.20e5,1.04e5,61315,9390
CG5445,DRSC19943,21030,21315,18175,18465,4255
CG2004,DRSC18200,1.41e5,1.26e5,2.71e5,2.13e5,10550
CG12420,DRSC14514,98760,95745,89775,66450,4520
HipHop,DRSC10734,95115,1.31e5,76970,81070,7615
Surf6,DRSC15588,1.50e5,1.49e5,2.15e5,1.90e5,10920
CG13069,DRSC09952,2.54e5,2.17e5,3.04e5,2.40e5,10795
Atf6,DRSC04743,1.76e5 (active),2.00e5,2.33e5,2.39e5,10210
Atf6,DRSC04889,2.28e5,2.02e5,1.72e5,1.93e5,15050
VGAT,DRSC07160,1.08e5,1.01e5,1.36e5,1.39e5,9970
JMJD7,DRSC09703,2.74e5,2.50e5,3.19e5,3.36e5,14485
Vsx2,DRSC17397,76370,56435,62745,50310,4145
Vsx2,DRSC18087,51550,54180,86625,84330,6590
Vsx2,DRSC18088,1.28e5,1.23e5,2.51e5,2.34e5,9700
Vsx2,DRSC18089,1.36e5,1.34e5,2.22e5,2.71e5,10955
CG8312,DRSC16406,54385,50835,30730,24540,4515
Sin1,DRSC05965,1.41e5,1.30e5,1.20e5,1.39e5,9995
CG11964,DRSC14447,1.39e5,1.46e5,97155,76930,10040
CG33784,DRSC12764,1.78e5,1.43e5,2.00e5,1.10e5,11438
CG7886,DRSC16333,2.58e5,2.82e5,2.37e5,1.79e5,18485
